The nature of one data set: Combined amino acid drink (tyrosine, phenylalanine, glutamic acid): exhaled breath VOCs by SIFT-MS in cancer and controls. Type of data set: in vivo, human. The following applies: 30 minutes after combined amino acid drink.
Regarding `CCCCCCCCCC=O` [Decanal], the “concentration at 30 minutes, cancer group” value is listed as 0.83 ppbv; the “fold increase, cancer group” value turned out to be 1.41; the “fold increase, control group” value was determined as 1.05.
For the compound `CCCCCCCCCC` [Decane], the “fold increase, cancer group” value is 1.44.

The data set is the same for the next values; noted with them: 40 minutes after combined amino acid drink.
Take `Cc1ccc(O)cc1` [P-cresol]: the “change in the control group” value is given as “No change”; the “concentration at 40 minutes, cancer group” value is reported as 1.25 ppbv; the “fold increase, cancer group” value amounted to 1.37 fold.

The data set is the same for the next values; noted with them: after combined amino acid drink.
Consider `CCCCCCCCCC=O` [Decanal], for which the “time of optimal response / significant increase in the cancer group” value turned out to be 30 min.
On to `Cc1ccc(O)cc1` [P-cresol], for which the “time of optimal response / significant increase in the cancer group” value came out at 40 min.

The data set is the same for the next values; noted with them: after combined amino acid drink, time not stated.
With `Oc1ccccc1` [Phenol], the “fold increase, cancer group” value is reported as 1.79 fold and the “fold increase, non-cancer group” value turned out to be 1.83 fold.

The data set is the same for the next values; noted with them: before combined amino acid drink.
Take `CCCCCCCCCC=O` [Decanal]: the “baseline concentration, cancer group” value is listed as 0.69 ppbv.
The same measure, in the same setting: the result for `Cc1ccc(O)cc1` [P-cresol] reads 0.93 ppbv.

The data set is the same for the next values; noted with them: median; exhaled breath; oesophagogastric cancer group; time point 30 mins after combined amino acid drink.
Consider `CCc1ccc(O)cc1` [1-hydroxy-4-ethylbenzene], for which the “Oesophagogastric Cancer: Post-amino acids Concentration” value (“Oesophagogastric Cancer” below) worked out at 0.45 ppbv.
Still for that read-out and setting: the same measure for `CC=O` [Acetaldehyde]: 19.80 ppbv; for `CCCC=O` [Butanal]: 2.42 ppbv; for `CCCCCCCCCC=O` [Decanal]: 0.83 ppbv.
Still for that read-out and setting: the result for `CCCCCCCCCC` [Decane] reads 4.78 ppbv; that for `CCCCCCC=O` [Heptanal], 0.94 ppbv.
Take `CCCCCC=O` [Hexanal]: the “Oesophagogastric Cancer” value is recorded as 3.42 ppbv.
In the case of `CCCCCCCCC=O` [Nonanal], the “Oesophagogastric Cancer” value was 2.55 ppbv.
Take `CCCCCCCC=O` [Octanal]: the “Oesophagogastric Cancer” value is listed as 0.59 ppbv.
The same measure, in the same setting: the result for `CCCCC=O` [Pentanal] reads 1.14 ppbv; that for `Oc1ccccc1` [Phenol], 2.27 ppbv; that for `CCC=O` [Propanal], 8.78 ppbv.

Still in this data set, the particulars now being: median; exhaled breath; oesophagogastric cancer group; time point 40 mins after combined amino acid drink.
Regarding `Cc1ccc(O)cc1` [P-cresol], the “Oesophagogastric Cancer” value turned out to be 1.25 ppbv.

A further data set is described as follows: Glucose versus combined glucose and citric acid: exhaled breath VOCs by SIFT-MS in healthy controls. It is filed as in vivo, human. The following applies: median; exhaled breath; control group 1 (n=6); before drink.
Take `CC=O` [Acetaldehyde]: the “Control 1 (glucose only): Baseline Concentration” value was 16.02 ppbv.
The same measure, in the same setting: the same measure for `CCCC=O` [Butanal]: 2.46 ppbv; for `CCCCCCCCCC=O` [Decanal]: 0.66 ppbv.
For `CCCCCCC=O` [Heptanal], the “Control 1 (glucose only): Baseline Concentration” value stood at 0.60 ppbv.
Same read-out and setting: the result for `CCCCCC=O` [Hexanal] reads 2.71 ppbv; that for `CCCCCCCCC=O` [Nonanal], 1.07 ppbv.
On the same count and under the same terms, the same measure for `CCCCCCCC=O` [Octanal]: 0.43 ppbv.
On the same count and under the same terms, the result for `CCCCC=O` [Pentanal] reads 1.17 ppbv.
On to `CCC=O` [Propanal], for which the “Control 1 (glucose only): Baseline Concentration” value came to 9.67 ppbv.

The data set is the same for the next values; noted with them: median; exhaled breath; control group 2 (n=6); before drink.
As for `CC=O` [Acetaldehyde], the “Control 2 (glucose + citric acid): Baseline Concentration” value is 19.72 ppbv.
With `CCCC=O` [Butanal], the “Control 2 (glucose + citric acid): Baseline Concentration” value worked out at 2.82 ppbv.
On to `CCCCCCCCCC=O` [Decanal], for which the “Control 2 (glucose + citric acid): Baseline Concentration” value was 0.87 ppbv.
On the same count and under the same terms, the same measure for `CCCCCCC=O` [Heptanal]: 1.80 ppbv; for `CCCCCC=O` [Hexanal]: 4.04 ppbv.
Still for that read-out and setting: the same measure for `CCCCCCCCC=O` [Nonanal]: 2.30 ppbv.
The same measure, in the same setting: the same measure for `CCCCCCCC=O` [Octanal]: 1.43 ppbv.
On to `CCCCC=O` [Pentanal], for which the “Control 2 (glucose + citric acid): Baseline Concentration” value is 1.32 ppbv.
Regarding `CCC=O` [Propanal], the “Control 2 (glucose + citric acid): Baseline Concentration” value is reported as 6.96 ppbv.

Still in this data set, the particulars now being: median; exhaled breath; glucose + citric acid; time point 10-15 mins.
As for `CCC=O` [Propanal], the “Control 2 (glucose + citric acid): Post-drink Concentration” value is given as 9.41 ppbv.

The same data set, now with this note: median; exhaled breath; glucose + citric acid; time point 5 mins.
Turning to `CC=O` [Acetaldehyde], the “Control 2 (glucose + citric acid): Post-drink Concentration” value was determined as 21.09 ppbv.
On the same count and under the same terms, the same measure for `CCCC=O` [Butanal]: 2.37 ppbv.
Same read-out and setting: the result for `CCCCCCCCCC=O` [Decanal] reads 0.77 ppbv.
The same measure, in the same setting: the result for `CCCCCCC=O` [Heptanal] reads 1.22 ppbv.
Turning to `CCCCCC=O` [Hexanal], the “Control 2 (glucose + citric acid): Post-drink Concentration” value is 4.86 ppbv.
Same read-out and setting: the same measure for `CCCCCCCCC=O` [Nonanal]: 2.49 ppbv; for `CCCCCCCC=O` [Octanal]: 1.12 ppbv.
Same read-out and setting: the same measure for `CCCCC=O` [Pentanal]: 1.43 ppbv.

Staying with this data set, now noted: median; exhaled breath; glucose only; time point 10-15 mins.
Consider `CCC=O` [Propanal], for which the “Control 1 (glucose only): Post-drink Concentration” value is 9.29 ppbv.

Still in this data set, the particulars now being: median; exhaled breath; glucose only; time point 5 mins.
`CC=O` [Acetaldehyde]: the “Control 1 (glucose only): Post-drink Concentration” value was found to be 15.25 ppbv.
The same measure, in the same setting: the result for `CCCC=O` [Butanal] reads 2.21 ppbv.
As for `CCCCCCCCCC=O` [Decanal], the “Control 1 (glucose only): Post-drink Concentration” value stood at 0.59 ppbv.
On to `CCCCCCC=O` [Heptanal], for which the “Control 1 (glucose only): Post-drink Concentration” value is reported as 0.53 ppbv.
Still for that read-out and setting: the same measure for `CCCCCC=O` [Hexanal]: 3.09 ppbv.
In the case of `CCCCCCCCC=O` [Nonanal], the “Control 1 (glucose only): Post-drink Concentration” value turned out to be 1.56 ppbv.
The same measure, in the same setting: the result for `CCCCCCCC=O` [Octanal] reads 0.58 ppbv.
The same measure, in the same setting: the same measure for `CCCCC=O` [Pentanal]: 1.05 ppbv.

The same data set, now with this note: median; glucose + citric acid; 10-15 mins vs baseline.
For `CCC=O` [Propanal], the “Control 2 (glucose + citric acid): Fold change” value is on record as 1.29.

Staying with this data set, now noted: median; glucose + citric acid; 5 mins vs baseline.
With `CC=O` [Acetaldehyde], the “Control 2 (glucose + citric acid): Fold change” value came to 0.94.
Still for that read-out and setting: the result for `CCCC=O` [Butanal] reads 0.87.
The same measure, in the same setting: the result for `CCCCCCCCCC=O` [Decanal] reads 1.13; that for `CCCCCCC=O` [Heptanal], 0.77.
In the case of `CCCCCC=O` [Hexanal], the “Control 2 (glucose + citric acid): Fold change” value worked out at 1.07.
Still for that read-out and setting: the result for `CCCCCCCCC=O` [Nonanal] reads 1.08; that for `CCCCCCCC=O` [Octanal], 0.81.
Take `CCCCC=O` [Pentanal]: the “Control 2 (glucose + citric acid): Fold change” value was 0.89.

The data set is the same for the next values; noted with them: median; glucose only; 10-15 mins vs baseline.
With `CCC=O` [Propanal], the “Control 1 (glucose only): Fold change” value worked out at 1.06.

Staying with this data set, now noted: median; glucose only; 5 mins vs baseline.
For the compound `CC=O` [Acetaldehyde], the “Control 1 (glucose only): Fold change” value worked out at 1.04.
Still for that read-out and setting: the result for `CCCC=O` [Butanal] reads 1.03.
Same read-out and setting: the result for `CCCCCCCCCC=O` [Decanal] reads 0.97; that for `CCCCCCC=O` [Heptanal], 0.86.
The same measure, in the same setting: the result for `CCCCCC=O` [Hexanal] reads 1.06; that for `CCCCCCCCC=O` [Nonanal], 1.23.
For `CCCCCCCC=O` [Octanal], the “Control 1 (glucose only): Fold change” value is 1.40.
Take `CCCCC=O` [Pentanal]: the “Control 1 (glucose only): Fold change” value worked out at 1.00.

Another data set in a line: 2 g tyrosine: exhaled breath VOCs by SIFT-MS in oesophageal cancer, gastric cancer and controls. The following applies: Median, controls n=6, before 2 g tyrosine.
Turning to `CCc1ccc(O)cc1` [1-hydroxy-4-ethylbenzene], the “Baseline Concentration, Control” value is given as 0.59 ppbv.
Same read-out and setting: the same measure for `CC=O` [Acetaldehyde]: 40.93 ppbv.
For `CCCC=O` [Butanal], the “Baseline Concentration, Control” value turned out to be 5.45 ppbv.
Turning to `CCCCCCCCCC=O` [Decanal], the “Baseline Concentration, Control” value turned out to be 2.04 ppbv.
The same measure, in the same setting: the same measure for `CCCCCCCCCC` [Decane]: 5.59 ppbv; for `CCCCCCC=O` [Heptanal]: 1.46 ppbv.
Same read-out and setting: the same measure for `CCCCCC=O` [Hexanal]: 9.23 ppbv; for `CCCCCCCCC=O` [Nonanal]: 3.99 ppbv.
On the same count and under the same terms, the same measure for `CCCCCCCC=O` [Octanal]: 1.38 ppbv.
Consider `Cc1ccc(O)cc1` [P-cresol], for which the “Baseline Concentration, Control” value came out at 1.24 ppbv.
The same measure, in the same setting: the result for `CCCCC=O` [Pentanal] reads 2.26 ppbv.
Same read-out and setting: the result for `Oc1ccccc1` [Phenol] reads 9.01 ppbv; that for `CCC=O` [Propanal], 17.98 ppbv.

Staying with this data set, now noted: Median, n=6, before 2 g tyrosine.
Consider `CCc1ccc(O)cc1` [1-hydroxy-4-ethylbenzene], for which the “Baseline Concentration, Gastric Cancer” value turned out to be 0.32 ppbv and the “Baseline Concentration, Oesophageal Cancer” value is 0.59 ppbv.
The matching figures for `CC=O` [Acetaldehyde]: 29.43 ppbv and 22.73 ppbv.
For `CCCC=O` [Butanal], in that order: 5.16 ppbv and 4.57 ppbv.
For `CCCCCCCCCC=O` [Decanal], the “Baseline Concentration, Gastric Cancer” value is recorded as 1.14 ppbv and the “Baseline Concentration, Oesophageal Cancer” value came to 1.08 ppbv.
For `CCCCCCCCCC` [Decane], in that order: 3.3 ppbv and 3.27 ppbv.
For the compound `CCCCCCC=O` [Heptanal], the “Baseline Concentration, Gastric Cancer” value is recorded as 0.95 ppbv and the “Baseline Concentration, Oesophageal Cancer” value came to 0.70 ppbv.
In the case of `CCCCCC=O` [Hexanal], the “Baseline Concentration, Gastric Cancer” value came to 4.73 ppbv and the “Baseline Concentration, Oesophageal Cancer” value was found to be 4.55 ppbv.
For `CCCCCCCCC=O` [Nonanal], in that order: 2.38 ppbv and 2.34 ppbv.
For `CCCCCCCC=O` [Octanal], in that order: 1.08 ppbv and 0.91 ppbv.
Take `Cc1ccc(O)cc1` [P-cresol]: the “Baseline Concentration, Gastric Cancer” value is reported as 1.72 ppbv and the “Baseline Concentration, Oesophageal Cancer” value worked out at 0.92 ppbv.
The matching figures for `CCCCC=O` [Pentanal]: 2.63 ppbv and 1.66 ppbv.
Regarding `Oc1ccccc1` [Phenol], the “Baseline Concentration, Gastric Cancer” value was 5.41 ppbv and the “Baseline Concentration, Oesophageal Cancer” value worked out at 4.65 ppbv.
With `CCC=O` [Propanal], the “Baseline Concentration, Gastric Cancer” value is listed as 11.70 ppbv and the “Baseline Concentration, Oesophageal Cancer” value was found to be 8.52 ppbv.

Staying with this data set, now noted: after 2 g tyrosine consumption.
For the compound `CCCC=O` [Butanal], the Increase/decrease result is recorded as “↑”.
Consider `CCCCCCCCCC=O` [Decanal], for which the Increase/decrease entry was “↑”.
Same read-out and setting: the result for `CCCCCCCCCC` [Decane] reads “↑”; that for `CCCCCCC=O` [Heptanal], “↑”; that for `CCCCCC=O` [Hexanal], “↑”.
On the same count and under the same terms, the result for `Cc1ccc(O)cc1` [P-cresol] reads “↑”; that for `Oc1ccccc1` [Phenol], “↑”.

For the origin of these results see patent US20220221443A1, “BIOMARKER DETECTION FOR CANCER DIAGNOSIS AND PROGNOSIS” (IP2IPO Innovations Limited, priority 2019, published 2022).
